Measurements from article PMC10920880.
The exact form of at least one protein or probe is not confirmed. The comparison behind a weaker result is the experiment's own reference, which may not be listed here. At least one verdict rests on a figure or table, not on a statement of the authors.

Molecular target: Hfq (Escherichia coli K12) (UniProt P0A6X3)
Assay: smFRET
Settings: smFRET: 10 mM Tris-HCl pH 7.5, 50 mM NaCl, 50 mM KCl, 4 mM Trolox, 0.01% Nikkol, 0.8% glucose, RNasin, oxygen scavenger, recombinant protein

Sequence | binding result (5 nM 1:1 complex with Hfq hexamer, label: 5' Alexa Fluor 555) | binding result (sRNA (N13)-Hfq, mostly transient 0.3 s, tau long 198 ± 44 s (0.22), internal Cy5 after nt 35)
GAGGUCAAACUUAUUUUUUUCGUCCAUUUCGGACGUUUUUU [model sRNA] | binds | –
GGACUCUAUCGAGUCCAACAACAACAACAACAACCCCUGCAUCACCUAAACUUUACUCUACCAUCACCAGACCUCGCGCCCAGGACGACACACUUUGGACAGGACACACAGGACACAGG / TGATGGTAGAGTAAAGTTTAGGTGATGC / CCTGTGTCCTGTGTGTCCTGTCCAAAGTGTGTCGTCC [(AAC)6-Cy5-N35-S6 mRNA + 28 nt spacer ASO on DNA tether] | – | binds more weakly
